Data on 1 compound can be found in article PMC6380468, “Investigations on small molecule inhibitors targeting the histone H3K4 tri-methyllysine binding PHD-finger of JmjC histone demethylases” (Bioorganic & Medicinal Chemistry, 2018).

As a reminder, the IC50 is the concentration that gives 50% inhibition. The low end stands for higher potency, the high end for lower potency.

Experiment [1] in a line: AlphaScreen biotin-His6 counterscreen. Particulars: AlphaScreen interference counterscreen with biotin-His6; unit inferred; DNC = data did not converge to binding model; NM = not measurable within the solubility range. In general terms: Bead proximity is the source of the signal in Alpha formats.
In experiment [2] the test system is KDM7A (PHD-JmjC). Put plainly: MALDI-TOF MS H3K9me2 demethylation assay, KDM7A(PHD-JmjC). Conditions: at 100 µM, substrate H3(1–15)K9me2. Format: biochemical, human. How it is done:
H3(1–15)K9me2 and H3(1–5)K4me3K9me2 were used as substrates for KDM7A(PHD-JmjC) and KDM7B(PHD-JmjC), respectively. […] For KDM7B(PHD-JmjC), inhibition was most pronounced for 1a (95%) and 2a (89%) whilst others inhibited more weakly (Table 4).
For KDM7(PHD-JmjC) assays, 2.5 µM enzyme was used, with 5 µM H3(1-15)K9me2 peptide substrate for KDM7A or H3(1-15)K4me3K9me2 for KDM7B. Final concentrations were: 1mM ascorbate, 50 µM (NH4)2Fe(II)(SO4)2 and 200 µM 2OG. The mixture was quenched using formic acid after 10 minutes (KDM7A) or 5 minutes (KDM7B).

In experiment [1], `CCCCc1oc2ccccc2c1C(=O)c1cc(I)c(OCCN(CC)CC)c(I)c1` [AMI, amiodarone, reference compound] displayed an IC50 of 178 ± 58 µM. For the same compound, the “KDM7A (PHD-JmjC) (Catalytic), inhibition of H3K9me2 demethylation” value in experiment [2] is 83% (100 µM).
